Data from PMC11592518.
These are yes or no findings as the source states them, for the method shown. Binding seen in cells or lysates may run through a third protein. Some results given as binding are weak or reduced against the parent protein; the word gives no strength. Tags and fused reporters may be left off the sequences shown.

Amino acid sequences for entries named in this document (tags omitted).
UniProt B1N2I7: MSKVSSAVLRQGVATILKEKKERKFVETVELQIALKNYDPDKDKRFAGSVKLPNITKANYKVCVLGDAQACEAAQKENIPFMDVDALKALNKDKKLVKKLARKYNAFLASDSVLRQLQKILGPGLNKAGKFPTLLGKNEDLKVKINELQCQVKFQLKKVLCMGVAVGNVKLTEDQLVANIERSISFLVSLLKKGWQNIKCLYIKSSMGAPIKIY

Molecular target: 60S ribosomal protein L10a-2 (Entamoeba histolytica (endogenous in HM-1:IMSS trophozoites)) (UniProt B1N2I7)
Experiment: co-sedimentation; ribosomes pelleted from trophozoite lysate (20 mM Hepes pH 7, 100 mM KCl, 5 mM MgCl2, 0.1% Triton, cycloheximide-treated cells) through a 0.5 M sucrose cushion, 60,000 RPM for 1 h 50 min; pellets blotted with Myc antibody and RPL1A antibody; trophozoites with or without 0.1 uM queuosine (Q) for 2 days

B1: Myc-tagged EhDUF2419 (enzyme, UniProt C4LXA2 1-305)
chain: MCEYVRWSVDYIEQNAKHVRVNQIKLKEKIIPLLEKIEAETFDESIHQAPNDIESRLRYILVVDALNFCFWPTEGFEYDDLTKGLSRLEHDHPEVFEPNQMKHVSSCLLSQYLVYNNRVISNIEERTRLMREVGEVLCNRFDQKVLNLLEESKYDATTLVSLIAKEFPGFRDSTIYKGRQVFFYKRAQIVVSDIQGMCGCIKGLEQLTGFADYRIPQVLLGWDVLDIEDQLKQKILDKKEIPSGSEEEIEIRCTVLSAIKMIQAIFLETKNSFIEGYRIDWFLWSYGEKNKEQLPPHHRTQTIFY
binding: binds

B2: Myc-tagged truncated EhDUF2419 (domain or fragment, UniProt C4LXA2 1-279)
chain: MCEYVRWSVDYIEQNAKHVRVNQIKLKEKIIPLLEKIEAETFDESIHQAPNDIESRLRYILVVDALNFCFWPTEGFEYDDLTKGLSRLEHDHPEVFEPNQMKHVSSCLLSQYLVYNNRVISNIEERTRLMREVGEVLCNRFDQKVLNLLEESKYDATTLVSLIAKEFPGFRDSTIYKGRQVFFYKRAQIVVSDIQGMCGCIKGLEQLTGFADYRIPQVLLGWDVLDIEDQLKQKILDKKEIPSGSEEEIEIRCTVLSAIKMIQAIFLETKNSFIEGYRI
binding: binds
